# The list is a part of this screen's results and no random one: it is rich in T/C values a quarter to a half above the control, in often repeated tests (any T/C) and in doses without a T/C. Other doses and runs of a compound stand elsewhere. T/C gives the treated animals as a percentage of the vehicle group. Some doses have a count of surviving animals in place of a T/C: the source holds a T/C of zero for them, seemingly a mark for toxic or unscored doses. Some survivor counts are full or nearly so, which does not show that the dose was tolerated: the source hardly ever lists a survival T/C far under the control, and the zero likely stands for such cases as well. Counts of survivors are from the toxicity check (mostly the fifth day) where no day follows; animals may have died later. Schedules are NCI's codes, taken here to give the interval after Q, in days (D) or hours (H), and the number of doses after X. Some doses were run more than once; their values stand side by side, smallest first. For survival time, this PubChem deposit counts one and a half times the control or more as active, and values a quarter to a half above the control carry no call in these data; other NCI protocols may use other cut-offs. Some T/C values are followed by the survivors on the day toxicity was checked, most often the fifth; without a count, all were alive then.
# Tested on: BDF1 mice, P388 leukemia ip, median survival T/C
# Assay: NCI In Vivo Anticancer Drug Screen. Data for tumor model P388 Leukemia (intraperitoneal) in B6D2F1 (BDF1) mice
# Settings: T/C endpoint: median survival time, higher T/C = longer survival
# How it was run: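 Read-out is survival of treated animals expressed relative to the vehicle group, as a T/C ratio.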
# [1] = dose: 50.0 mg/kg/injection, schedule: Q04DX003 (ip), vehicle: Klucel (hydroxypropylcellulose) (HPC)
# [2] = dose: 100.0 mg/kg/injection, schedule: Q04DX003 (ip), vehicle: Klucel (hydroxypropylcellulose) (HPC)
# [3] = dose: 200.0 mg/kg/injection, schedule: Q04DX003 (ip), vehicle: Klucel (hydroxypropylcellulose) (HPC)
# [4] = dose: 400.0 mg/kg/injection, schedule: Q04DX003 (ip), vehicle: Klucel (hydroxypropylcellulose) (HPC)
# [5] = dose: 400.0 mg/kg/injection, schedule: Q01DX009 (ip), vehicle: saline with Tween-80
# [6] = dose: 25.0 mg/kg/injection, schedule: Q01DX009 (ip), vehicle: saline
structure (smiles),measurement,setting,value
ClCCN(CCCl)CCN1c2ccccc2Sc2ccccc21,T/C,"dose: 1.8 mg/kg/injection, schedule: Q01DX009 (ip), vehicle: Klucel (hydroxypropylcellulose) (HPC)",138 % of control
same,T/C,"dose: 2.7 mg/kg/injection, schedule: Q01DX009 (ip), vehicle: Klucel (hydroxypropylcellulose) (HPC)",147 % of control
same,T/C,"dose: 4.1 mg/kg/injection, schedule: Q01DX009 (ip), vehicle: Klucel (hydroxypropylcellulose) (HPC)",131 % of control
same,T/C,"dose: 6.0 mg/kg/injection, schedule: Q01DX009 (ip), vehicle: Klucel (hydroxypropylcellulose) (HPC)",130 and 133 % of control
same,T/C,"dose: 6.1 mg/kg/injection, schedule: Q01DX009 (ip), vehicle: Klucel (hydroxypropylcellulose) (HPC)",145 % of control [5 of 6 alive]
same,T/C,"dose: 9.0 mg/kg/injection, schedule: Q01DX009 (ip), vehicle: Klucel (hydroxypropylcellulose) (HPC)","137, 138, 141 % of control [5 of 6 alive]"
same,T/C,"dose: 14.0 mg/kg/injection, schedule: Q01DX009 (ip), vehicle: Klucel (hydroxypropylcellulose) (HPC)",141 [4 of 6 alive] and 146 % of control
same,T/C,"dose: 18.0 mg/kg/injection, schedule: Q01DX009 (ip), vehicle: Klucel (hydroxypropylcellulose) (HPC)",129 % of control
same,survivor count,"dose: 18.75 mg/kg/injection, schedule: Q01DX009 (ip), vehicle: Klucel (hydroxypropylcellulose) (HPC)",3 of 6
same,T/C,"dose: 23.0 mg/kg/injection, schedule: Q04DX003 (ip), vehicle: saline with Tween-80",141 % of control
same,T/C,"dose: 24.0 mg/kg/injection, schedule: Q01DX009 (ip), vehicle: Klucel (hydroxypropylcellulose) (HPC)",130 % of control [5 of 6 alive]
same,T/C,"dose: 35.0 mg/kg/injection, schedule: Q04DX003 (ip), vehicle: saline with Tween-80",141 % of control
same,survivor count,"dose: 37.0 mg/kg/injection, schedule: Q01DX009 (ip), vehicle: Klucel (hydroxypropylcellulose) (HPC)",5 of 6
same,survivor count,"dose: 37.5 mg/kg/injection, schedule: Q01DX009 (ip), vehicle: Klucel (hydroxypropylcellulose) (HPC)",1 of 6
same,survivor count,[1],5 of 6
same,survivor count,"dose: 56.0 mg/kg/injection, schedule: Q01DX009 (ip), vehicle: Klucel (hydroxypropylcellulose) (HPC)",0 of 6
same,survivor count,"dose: 70.0 mg/kg/injection, schedule: Q04DX003 (ip), vehicle: Klucel (hydroxypropylcellulose) (HPC)",3 of 6
same,survivor count,[2],0 of 5
same,survivor count,[3],0 of 6
same,survivor count,[4],0 of 6
O=c1c2ccccc2sc2c(CO)ccc(NCCN3CCCCC3)c12,T/C,"dose: 400.0 mg/kg/injection, schedule: Q04DX003 (ip), vehicle: saline with Tween-80",126 and 144 % of control
CC(=O)OCC(=O)[C@@]1(O)[C@H](C)C[C@H]2[C@@H]3C=C(C)C4=Cc5c(cnn5-c5ccc(F)cc5)C[C@]4(C)[C@H]3[C@@H](O)C[C@@]21C,survivor count,"dose: 1.56 mg/kg/injection, schedule: Q01DX009 (ip), vehicle: steroid suspending solution",6 of 6
same,survivor count,"dose: 3.12 mg/kg/injection, schedule: Q01DX009 (ip), vehicle: steroid suspending solution",6 of 6
same,survivor count,"dose: 6.25 mg/kg/injection, schedule: Q01DX009 (ip), vehicle: Klucel (hydroxypropylcellulose) (HPC)",4 of 6
same,survivor count,"dose: 6.25 mg/kg/injection, schedule: Q01DX009 (ip), vehicle: steroid suspending solution",6 of 6
same,survivor count,"dose: 7.9 mg/kg/injection, schedule: Q04DX003 (sc), vehicle: steroid suspending solution",5 of 6
same,survivor count,"dose: 12.5 mg/kg/injection, schedule: Q01DX009 (ip), vehicle: Klucel (hydroxypropylcellulose) (HPC)",2 of 6
same,survivor count,"dose: 25.0 mg/kg/injection, schedule: Q01DX009 (ip), vehicle: Klucel (hydroxypropylcellulose) (HPC)",2 of 6
same,survivor count,"dose: 25.0 mg/kg/injection, schedule: Q04DX003 (ip), vehicle: Klucel (hydroxypropylcellulose) (HPC)",5 of 6
same,survivor count,[1],6 of 6
same,survivor count,[2],6 of 6
same,survivor count,[3],2 of 6
same,survivor count,[4],1 of 6
CCCC(=O)Nc1ccn(C2OC(COC(=O)CCC)C(OC(=O)CCC)C2OC(=O)CCC)c(=O)n1 (stereo unspecified),T/C,"dose: 200.0 mg/kg/injection, schedule: Q01DX009 (ip), vehicle: Klucel (hydroxypropylcellulose) (HPC)",131 % of control
Br/C(C=Nc1ccccc1)=C\Nc1ccccc1,survivor count,[5],4 of 6
CCN(CC)CC1CO1 (stereo unspecified),survivor count,[6],3 of 6
same,survivor count,"dose: 50.0 mg/kg/injection, schedule: Q01DX009 (ip), vehicle: saline",0 of 6
C/C=C/C=C/C(=O)c1ccc(OC)cc1O,T/C,"dose: 200.0 mg/kg/injection, schedule: Q01DX009 (ip), vehicle: saline with Tween-80",127 % of control
same,T/C,[5],145 % of control
Oc1ccc(Nc2ccnc3cc(Cl)ccc23)cc1CN(CCCl)CCCl,T/C,"dose: 2.2 mg/kg/injection, schedule: Q04DX003 (ip), vehicle: saline",145 % of control
same,T/C,"dose: 5.0 mg/kg/injection, schedule: Q04DX003 (ip), vehicle: saline with Tween-80",135 % of control
same,T/C,"dose: 7.5 mg/kg/injection, schedule: Q04DX003 (ip), vehicle: saline",127 % of control
same,survivor count,"dose: 10.0 mg/kg/injection, schedule: Q01DX009 (ip), vehicle: saline",4 of 6
same,survivor count,"dose: 20.0 mg/kg/injection, schedule: Q04DX003 (ip), vehicle: saline with Tween-80",4 of 6
CCCN1CCN(c2ccc([N+](=O)[O-])c3no[n+]([O-])c23)CC1,T/C,"dose: 5.0 mg/kg/injection, schedule: Q01DX009 (ip), vehicle: saline with Tween-80",132 % of control
ClCCN(CCCl)CCCN1c2ccccc2Sc2ccccc21,T/C,"dose: 3.12 mg/kg/injection, schedule: Q04DX003 (ip), vehicle: saline with Tween-80",138 % of control
same,survivor count,"dose: 25.0 mg/kg/injection, schedule: Q04DX003 (ip), vehicle: saline with Tween-80",6 of 6
same,survivor count,"dose: 50.0 mg/kg/injection, schedule: Q04DX003 (ip), vehicle: saline with Tween-80",4 of 6 and 5 of 6
same,survivor count,"dose: 75.0 mg/kg/injection, schedule: Q04DX003 (ip), vehicle: saline with Tween-80",3 of 6 and 5 of 6
CC1(C)N=C(N)N=C(N)N1c1cccc(CCCCc2ccc(S(=O)(=O)F)cc2)c1,T/C,"dose: 4.12 mg/kg/injection, schedule: Q01DX009 (ip), vehicle: saline",130 % of control
same,T/C,"dose: 6.25 mg/kg/injection, schedule: Q01DX009 (ip), vehicle: saline",125 % of control
same,T/C,"dose: 8.25 mg/kg/injection, schedule: Q01DX009 (ip), vehicle: saline",145 % of control
same,T/C,"dose: 12.5 mg/kg/injection, schedule: Q01DX009 (ip), vehicle: saline","129, 136, 145 % of control"
same,T/C,"dose: 18.75 mg/kg/injection, schedule: Q01DX009 (ip), vehicle: saline",131 % of control
same,survivor count,[6],3 of 6
COc1cc2c(cc1OC)-c1ccc3cc4c(cc3c1N(C)C2)OCO4,T/C,"dose: 20.0 mg/kg/injection, schedule: Q01DX009 (ip), vehicle: other",131 % of control
same,T/C,"dose: 80.0 mg/kg/injection, schedule: Q01DX009 (ip), vehicle: other",141 % of control
CCO/C=C1\SC(=S)N(c2ccc(C(=O)O)cc2)C1=O,T/C,"dose: 11.0 mg/kg/injection, schedule: Q01DX009 (ip), vehicle: saline with Tween-80",130 % of control
same,T/C,"dose: 16.5 mg/kg/injection, schedule: Q01DX009 (ip), vehicle: saline with Tween-80",135 % of control
same,T/C,"dose: 16.5 mg/kg/injection, schedule: Q01DX009 (ip), vehicle: saline",136 % of control
same,T/C,"dose: 25.0 mg/kg/injection, schedule: Q01DX009 (ip), vehicle: saline with Tween-80",125 and 135 % of control
same,T/C,"dose: 37.5 mg/kg/injection, schedule: Q01DX009 (ip), vehicle: saline with Tween-80",130 % of control
same,survivor count,"dose: 50.0 mg/kg/injection, schedule: Q01DX009 (ip), vehicle: saline with Tween-80",6 of 6
CC(=O)N(C)c1cccc(C(=O)O)c1,survivor count,"dose: 50.0 mg/kg/injection, schedule: Q01DX001 (ip), vehicle: Klucel (hydroxypropylcellulose) (HPC)",6 of 6
same,survivor count,"dose: 100.0 mg/kg/injection, schedule: Q01DX001 (ip), vehicle: Klucel (hydroxypropylcellulose) (HPC)",6 of 6
same,survivor count,"dose: 200.0 mg/kg/injection, schedule: Q01DX001 (ip), vehicle: Klucel (hydroxypropylcellulose) (HPC)",6 of 6

# From PubChem BioAssay AID328 (DTP/NCI, 2004)
